Data from US20160185853A1 (UNIVERSITY OF SOUTHERN CALIFORNIA, published 2016).
No constants are given. Whether binding was seen depends on the method and setting. Some binding calls cover weakened binding; strength is not graded here.

By UniProt entry, the sequences of proteins in these tests, tags left out. Where a name states a change or a piece, a line headed by the entry shows the natural chain unless it says otherwise.
UniProt P11021: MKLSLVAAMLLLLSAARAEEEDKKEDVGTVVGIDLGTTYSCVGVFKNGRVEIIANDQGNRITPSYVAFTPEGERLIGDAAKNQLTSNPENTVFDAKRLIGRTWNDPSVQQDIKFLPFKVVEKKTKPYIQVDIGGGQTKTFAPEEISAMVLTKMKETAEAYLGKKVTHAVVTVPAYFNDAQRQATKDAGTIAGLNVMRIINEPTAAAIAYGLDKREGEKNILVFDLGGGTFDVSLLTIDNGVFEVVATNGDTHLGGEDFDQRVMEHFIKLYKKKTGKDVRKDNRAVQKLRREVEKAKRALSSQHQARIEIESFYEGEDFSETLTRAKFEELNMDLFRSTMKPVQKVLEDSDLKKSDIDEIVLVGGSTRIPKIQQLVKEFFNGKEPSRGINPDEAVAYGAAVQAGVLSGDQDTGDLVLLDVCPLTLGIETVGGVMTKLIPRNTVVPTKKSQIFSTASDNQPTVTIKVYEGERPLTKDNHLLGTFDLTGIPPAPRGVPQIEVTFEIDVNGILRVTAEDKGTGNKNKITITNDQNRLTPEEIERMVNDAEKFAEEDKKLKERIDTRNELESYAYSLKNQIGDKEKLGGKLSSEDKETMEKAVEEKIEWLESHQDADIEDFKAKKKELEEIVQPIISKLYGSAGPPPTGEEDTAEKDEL

Key:
human GRP78 [1] = target: T1, human GRP78 (human, UniProt P11021 19-654); assay: summary of the examples
T1 construct: also called BiP/HSPA5; antigen

human GRP78 [2] = target: T1, human GRP78; assay: Western blot of denatured and reduced whole cell lysates of 293T cells [panel B]

binding (human GRP78 [1]): binds | binding (human GRP78 [2]): binds
B1: MAb159 (murine monoclonal antibody) (antibody, V domains shown)
VH: QAQLQQPGAELVKPGASVRLSCKASGYTFTSYWMHWVKQRPGQGLEWIGEINPGNGRTNYNEKFKRKATLTVDKSSSTAYMQLNSLTSEDSAVYYCATLYYYDGTYDYWGQGTTLTVSS
VL: DIVMTQSHKFMSTSVGDRVSVTCKASQNVGTDVAWYQQKPGQSPKALIYWASNRFTGVPDRFTGSGSGTDFTLTINNVQSEDLVDYFCQQYSSSPWTFGGGTKLEIK
notes: Whole murine monoclonal antibody from a hybridoma, purified on protein G; also called murine MAb159; parental murine antibody
